From paper PMC8168462
These are yes or no findings as the source states them, for the method shown. Binding seen in cells or lysates may run through a third protein. Some results given as binding are weak or reduced against the parent protein; the word gives no strength. For some assays here: Where a sequence is shown, tags or fusion partners need not be part of it.

By UniProt entry, the sequences of proteins in these tests, tags left out.
UniProt P23771: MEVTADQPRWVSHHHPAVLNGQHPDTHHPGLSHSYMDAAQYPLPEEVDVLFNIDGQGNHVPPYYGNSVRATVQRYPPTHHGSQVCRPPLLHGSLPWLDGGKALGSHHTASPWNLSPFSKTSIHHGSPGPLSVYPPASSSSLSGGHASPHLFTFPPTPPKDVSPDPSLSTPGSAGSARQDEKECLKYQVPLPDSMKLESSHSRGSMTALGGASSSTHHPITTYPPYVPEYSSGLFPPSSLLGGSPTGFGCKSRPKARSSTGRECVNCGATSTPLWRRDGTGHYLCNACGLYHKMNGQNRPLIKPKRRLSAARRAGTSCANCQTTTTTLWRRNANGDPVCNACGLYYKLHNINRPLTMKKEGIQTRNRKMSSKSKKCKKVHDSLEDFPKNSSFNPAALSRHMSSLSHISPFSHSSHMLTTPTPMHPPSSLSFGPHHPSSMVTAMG

Tests used:
[1] = target: GATA-3-HA (UniProt P23771); assay: co-IP; exogenous co-immunoprecipitation: 293T cells 24 h after transfection with NR2F2-Flag and GATA-3-HA plasmids; lysate with 1 ug anti-HA or anti-Flag overnight at 4°C, protein A/G-plus agarose beads, 6 washes, western blot
[2] = target: GATA-3 (endogenous, decidual CD4+ T cells) (human (endogenous in decidual CD4+ T cells)) (UniProt P23771); assay: co-IP; endogenous co-immunoprecipitation: decidual CD4+ T cells lysed in RIPA; 1 ug anti-GATA-3 or IgG overnight at 4°C, protein A/G beads, RIPA washes, western blot for NR2F2

binding [1]	binding [2]	Binder
binds	–	NR2F2-Flag (protein, UniProt P24468 1-414) MAMVVSTWRDPQDEVPGSQGSQASQAPPVPGPPPGAPHTPQTPGQGGPASTPAQTAAGGQGGPGGPGSDKQQQQQHIECVVCGDKSSGKHYGQFTCEGCKSFFKRSVRRNLSYTCRANRNCPIDQHHRNQCQYCRLKKCLKVGMRREAVQRGRMPPTQPTHGQFALTNGDPLNCHSYLSGYISLLLRAEPYPTSRFGSQCMQPNNIMGIENICELAARMLFSAVEWARNIPFFPDLQITDQVALLRLTWSELFVLNAAQCSMPLHVAPLLAAAGLHASPMSADRVVAFMDHIRIFQEQVEKLKALHVDSAEYSCLKAIVLFTSDACGLSDVAHVESLQEKSQCALEEYVRSQYPNQPTRFGKLLLRLPSLRTVSSSVIEQLFFVRLVGKTPIETLIRDMLLSGSSFNWPYMAIQ
–	binds	NR2F2 (endogenous, decidual CD4+ T cells) (protein, UniProt P24468 1-414) MAMVVSTWRDPQDEVPGSQGSQASQAPPVPGPPPGAPHTPQTPGQGGPASTPAQTAAGGQGGPGGPGSDKQQQQQHIECVVCGDKSSGKHYGQFTCEGCKSFFKRSVRRNLSYTCRANRNCPIDQHHRNQCQYCRLKKCLKVGMRREAVQRGRMPPTQPTHGQFALTNGDPLNCHSYLSGYISLLLRAEPYPTSRFGSQCMQPNNIMGIENICELAARMLFSAVEWARNIPFFPDLQITDQVALLRLTWSELFVLNAAQCSMPLHVAPLLAAAGLHASPMSADRVVAFMDHIRIFQEQVEKLKALHVDSAEYSCLKAIVLFTSDACGLSDVAHVESLQEKSQCALEEYVRSQYPNQPTRFGKLLLRLPSLRTVSSSVIEQLFFVRLVGKTPIETLIRDMLLSGSSFNWPYMAIQ
